Source: paper PMC3046157
Construct, isoform or probe ends are uncertain for at least one entry. Tags and fusion partners may be left off the protein sequences shown.

Molecular target: T1, NcrB (His6-NcrB) (Leptospirillum ferriphilum UBK03) (UniProt Q06VT2)
T1 sequence (looked up): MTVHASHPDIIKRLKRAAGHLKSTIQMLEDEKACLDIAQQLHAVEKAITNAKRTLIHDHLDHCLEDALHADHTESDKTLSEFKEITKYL
Experiment: competition with a labelled probe
Conditions: 0.8 uM NcrB, unlabeled competitor reduces binding to labeled pncrA; EMSA: 10 mM Tris pH 7.5, 50 mM NaCl, 1 mM DTT, 0.25% Tween 20, 5 mM MgCl2, 1 ug poly(dI-dC), 20 uL, 37 C 20 min; recombinant protein; residues 1-89; protein details: N-terminal His6 (pET-30a(+), BamHI-HindIII)

“ATCCCCCTGGGGGGGAT (double strand) [17-bp inverted repeat (p1p17)]”: binds.
